Results are given in words; binding and its absence hold for the method and conditions named. Binding seen in cells or lysates may run through a third protein. Some results given as binding are weak or reduced against the parent protein; the word gives no strength.
Target: recombinant human FABP4 protein (fatty acid-binding protein 4) (human) (UniProt P15090)
Experiment: co-IP; reciprocal coimmunoprecipitation of exogenous FABP4 and ITGB1 (n = 2); cells and antibodies not shown; only the target purified

Chains of the proteins cited; added tags and fusions are not shown. Lines headed by an entry give the natural chain unless they say otherwise; changes in a name come on top.
UniProt P15090: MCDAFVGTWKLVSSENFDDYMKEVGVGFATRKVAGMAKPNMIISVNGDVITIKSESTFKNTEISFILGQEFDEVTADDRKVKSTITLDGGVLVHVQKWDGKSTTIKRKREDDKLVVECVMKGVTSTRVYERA
UniProt P05556: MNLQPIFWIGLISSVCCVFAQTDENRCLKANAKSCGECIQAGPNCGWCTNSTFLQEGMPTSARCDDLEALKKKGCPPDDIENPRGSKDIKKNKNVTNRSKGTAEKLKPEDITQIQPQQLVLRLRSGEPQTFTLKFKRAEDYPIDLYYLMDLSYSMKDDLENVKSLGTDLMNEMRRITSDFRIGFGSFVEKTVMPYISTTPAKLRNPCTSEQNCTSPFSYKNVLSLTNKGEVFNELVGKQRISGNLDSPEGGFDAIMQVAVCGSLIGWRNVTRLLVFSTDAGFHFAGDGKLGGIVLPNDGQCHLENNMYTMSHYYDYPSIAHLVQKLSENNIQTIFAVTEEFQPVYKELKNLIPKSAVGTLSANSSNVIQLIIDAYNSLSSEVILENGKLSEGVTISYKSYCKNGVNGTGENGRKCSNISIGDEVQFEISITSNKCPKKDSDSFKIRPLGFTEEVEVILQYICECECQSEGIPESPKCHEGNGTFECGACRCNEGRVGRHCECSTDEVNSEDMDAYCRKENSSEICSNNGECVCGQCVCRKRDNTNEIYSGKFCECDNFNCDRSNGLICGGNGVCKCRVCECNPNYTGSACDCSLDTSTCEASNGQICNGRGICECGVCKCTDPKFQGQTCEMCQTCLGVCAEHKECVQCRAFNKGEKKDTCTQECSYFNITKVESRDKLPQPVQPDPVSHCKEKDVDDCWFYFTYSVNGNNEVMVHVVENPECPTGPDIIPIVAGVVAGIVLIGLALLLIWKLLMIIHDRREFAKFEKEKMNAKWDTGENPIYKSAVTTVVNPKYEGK

binding: binds
Substance: integrin β 1 (ITGB1) (from UniProt P05556 21-798) (receptor)
